Data source: PubChem BioAssay AID504784 (Drosophila RNAi Screening Center, 2011)
Test: 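Search for regulators of lipid droplet storage in oleate-fed fly cells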 (primary screen). Cell system: Drosophila Kc167 embryonic cells. Reagent: long dsRNA against Drosophila genes, about 250 ng dsRNA per well. Timing: 4 days. Conditions: cells fed 400 µM oleic acid bound to BSA. Read-out: 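Cells imaged and segmented; ratio of lipid droplet area to nuclear area, log-transformed, then normalised as a B-score over the screen; higher means more stored lipid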. Reading the numbers: droplet/nuclear area B-score: higher = more stored lipid (overstorage).
The deposit covers about 17,000 reagents; this is an unselected part of those that have a named target and a result. 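Each column is one replicate's B-score; the combined score over replicates was not deposited, so single values may mislead.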 Reagents against one gene are numbered here. A plus sign joins genes that one reagent is predicted to hit. No sequences are given here.

no.	gene	reagent	droplet/nuclear area B-score, replicate 1	droplet/nuclear area B-score, replicate 2	droplet/nuclear area B-score, replicate 3
1	CSN5 (COP9 signalosome subunit 5)	1	-0.582	0.887	
2	CSN5 (COP9 signalosome subunit 5)	2	1.28	-1.53	
3	Ranbp21	1	1.15	1.14	
4	CG5245	1	-0.29	-0.313	
5	Gr8a (Gustatory receptor 8a)	1	0.121	0.721	0.561
6	14-3-3epsilon	1	1.14	0.149	
7	SdhCL (Succinate dehydrogenase, subunit C-like)	1	-1.26	-1.85	
8	Asph (Aspartyl beta-hydroxylase)	1	-0.184	-0.269	
9	Asph (Aspartyl beta-hydroxylase)	2	0.278	-1.46	
10	Sin1 (SAPK-interacting protein 1)	1	0.886	0.465	
11	Yeti	1	4.53	1.29	
12	CG1299	1	-0.677	-0.669	
13	CG15247	1	0.406	-2.88	0.912
14	ppk28 (pickpocket 28)	1	0.00863	0.386	
15	CG5543	1	-1.26	-0.819	
16	CG17124	1	-0.299	1.96	
17	lap (like-AP180)	1	-0.0071	0.00648	
18	CG34393	1	-1.52	0.402	
19	CG34393	2	-0.0568	0.476	
20	Rsph3 (Radial spoke head protein 3)	1	-0.181	-0.0456	
21	Rsph3 (Radial spoke head protein 3)	2	-1.03	-0.25	
22	Jhe (Juvenile hormone esterase)	1	1.38	-1.38	
23	CG31446	1	1.2	0.959	
24	Cpr73D (Cuticular protein 73D)	1	-0.286	1.82	-1.2
25	hop (hopscotch)	1	0.285	0.592	0.00227
26	hop (hopscotch)	2	-1.14	-0.547	
27	CG8036	1	-1.27	-0.745	

The list goes on (4 carried over from the part before).
no.	gene	reagent	droplet/nuclear area B-score, replicate 1	droplet/nuclear area B-score, replicate 2	droplet/nuclear area B-score, replicate 3
24	Cpr73D (Cuticular protein 73D)	1	-0.286	1.82	-1.2
25	hop (hopscotch)	1	0.285	0.592	0.00227
26	hop (hopscotch)	2	-1.14	-0.547	
27	CG8036	1	-1.27	-0.745	
28	CG10752	1	0.0443	-0.496	
29	CG3589	1	-0.995	0.183	
30	Pstk + CG14210 + Tim9b	1	-1.83	0.0608	
31	CG33309	1	0.639	-0.709	
32	hd (humpty dumpty)	1	-0.0959	-0.899	
33	CG5715	1	-0.0183	-2.05	
34	Clbn (Caliban)	1	0.321	-0.145	
35	CG4949	1	0.723	0.703	
36	vito (viriato)	1	2.13	-0.663	
37	cad (caudal)	1	3.48		
38	cad (caudal)	2	0.561	2.01	
39	CG13285	1	-0.661	-0.33	
40	COX4 (Cytochrome c oxidase subunit 4)	1	5.86	3.41	
41	CG42340	1	-0.00222	-1.06	0.275
42	CG42340	2	-0.00419	-0.924	
43	CG42340	3	0.308	-0.146	
44	CG42340	4	-0.694	-1.07	
45	Fatp2 (Fatty acid transport protein 2)	1	1.59	0.255	
46	Fatp2 (Fatty acid transport protein 2)	2	-2.49	-0.0901	
47	Fatp2 (Fatty acid transport protein 2)	3	-0.444	0.512	
48	btsz (bitesize)	1	0.0211	1.95	
49	btsz (bitesize)	2	0.0272	-1.24	
50	CG18659	1	-0.389	-0.279	
51	CG7406	1	-1.25	0.293	
52	CG14400	1	0.0131	0.872	
53	SF1 (Splicing factor 1)	1	1.12	-1.45	
54	Not10 (CCR4-NOT transcription complex subunit 10)	1	1.24	-0.0895	
55	CG9853	1	-0.0443	-0.589	0.946
56	CG9853	2	-0.851	-0.625	
